From article PMC11443917 come the findings set out here.

The target of the assay is T1, Signaling lymphocyte activation molecule family 6 (SLAMF6) (mouse (endogenous in CD4+ T cells from mouse splenocytes)) (UniProt Q9ET39).
T1 sequence: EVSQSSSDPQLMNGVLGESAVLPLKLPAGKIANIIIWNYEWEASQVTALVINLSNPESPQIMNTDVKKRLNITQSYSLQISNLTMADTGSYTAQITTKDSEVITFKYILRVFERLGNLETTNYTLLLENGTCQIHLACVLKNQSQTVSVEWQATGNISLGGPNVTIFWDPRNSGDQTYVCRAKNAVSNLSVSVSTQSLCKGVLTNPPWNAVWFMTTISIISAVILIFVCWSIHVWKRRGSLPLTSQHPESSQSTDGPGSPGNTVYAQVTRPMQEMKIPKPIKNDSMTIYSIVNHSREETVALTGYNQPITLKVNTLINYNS
Briefly: co-IP; total protein of CD4+ T cells in lysis buffer with protease and phosphatase inhibitors; antibody overnight at 4 °C, protein A/G agarose beads 2 h, washed with lysis buffer, western blot. (In general: A western blot detects proteins with antibodies after separation by electrophoresis.)

Results are given in words; binding and its absence hold for the method and conditions named. Binding seen in cells or lysates may run through a third protein. Some results given as binding are weak or reduced against the parent protein; the word gives no strength.

B1: SH2D1A (SLAM-associated protein) (protein, UniProt O88890 1-126)
chain: MDAVTVYHGKISRETGEKLLLATGLDGSYLLRDSESVPGVYCLCVLYQGYIYTYRVSQTETGSWSAETAPGVHKRFFRKVKNLISAFQKPDQGIVTPLQYPVEKSSGRGPQAPTGRRDSDICLNAP
As for B1, the binding result is listed as “binds”.
